Reference: patent US20250121081A1 (JIANGSU HENGRUI PHARMACEUTICALS, published 2025)
These are yes or no findings as the source states them, for the method shown. Some results given as binding are weak or reduced against the parent protein; the word gives no strength.

Amino acid sequences for entries named in this document (tags omitted). A change or cut given only in a name is not applied to a line headed by its entry. Chains listed by the source or under a name are the forms on record and can include a tag or linker.
rat ROR1-His (Cat. #RO1-R5221, Acro) antigen (D3ZZ97, form named): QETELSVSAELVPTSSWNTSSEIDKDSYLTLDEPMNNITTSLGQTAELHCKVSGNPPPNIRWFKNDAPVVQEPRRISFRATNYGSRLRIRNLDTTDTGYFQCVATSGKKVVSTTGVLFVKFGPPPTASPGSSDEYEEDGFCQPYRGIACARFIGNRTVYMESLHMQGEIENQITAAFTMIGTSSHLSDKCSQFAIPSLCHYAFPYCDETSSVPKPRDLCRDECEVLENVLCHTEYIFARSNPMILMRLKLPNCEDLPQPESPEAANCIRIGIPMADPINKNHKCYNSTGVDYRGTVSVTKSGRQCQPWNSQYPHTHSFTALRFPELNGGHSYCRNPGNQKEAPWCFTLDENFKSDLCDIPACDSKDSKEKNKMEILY

Target: rat ROR1-His (Cat. #RO1-R5221, Acro) antigen (rat) (UniProt D3ZZ97)
Assay: SPR (Biacore T200)

- binding: binds
B1: fully human ROR1 antibody 347 (antibody, human IgG1, kappa, V domains shown)
VH: QVQLVQSGAEVKKPGSSVKVSCKASGYTFTDYYISWVRQGPGQGLEWMGGINAGNGNTNYAQKFQGRVTITADESTSTAYMELSSLRSEDTAVYYCASPGWDVFDIWGQGTMVTVSS
VL: DIQMTQSPSPLSASVGDRVTITCQASQDISNYLNWYQQKPGKAPKLLIYDASNLETGVPSRFSGSGSGTDFTFTISSLQPEDIATYYCQQHEDLPITFGQGTRLEIKR
notes: Full-length human IgG1/kappa
